Laboratory results published in PubChem BioAssay AID220 (DTP/NCI, 2004).
The list shows only some results of the screen, not a fair sample: it is rich in T/C values a quarter to a half above the control, in often repeated tests (any T/C) and in doses without a T/C. Other doses and runs of a compound stand elsewhere. T/C: endpoint of the treated group in % of that of the vehicle group. Schedules are NCI's codes, read here as Q, the interval in days (D) or hours (H), X, the number of doses. Some T/C values are followed by the survivors on the day toxicity was checked, most often the fifth; where none is given, no animal had died by that day. Some entries were tested several times; the values are given in rising order. Some entries give survivors of the animals treated and no T/C: the source files T/C as zero there, which appears to mark a toxic dose or a test without result, not a measured value. Survivors were counted at the toxicity check, usually on the fifth day, unless a day is given; later deaths do not show.

System: CD8F1 mice, subcutaneous mammary adenocarcinoma, T/C%
Assay: NCI In Vivo Anticancer Drug Screen. Data for tumor model Mammary Adenocarcinoma CD8F1 (subcutaneous) in CD8F1
Conditions: higher T/C = larger tumour
Procedure, shortened: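 Tumor-bearing mice, transplantable model; readout survival or tumor size; value = treated (T) / vehicle control (C).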

[1] = T/C endpoint: median tumor weight change, dose: 250.0 mg/kg/injection, schedule: Q01DX001 (ip), vehicle: saline
[2] = T/C endpoint: median tumor weight change, dose: 500.0 mg/kg/injection, schedule: Q01DX001 (ip), vehicle: saline
[3] = T/C endpoint: median tumor weight change, dose: 1000.0 mg/kg/injection, schedule: Q01DX001 (ip), vehicle: saline
[4] = T/C endpoint: median tumor weight change, dose: 500.0 mg/kg/injection, schedule: Q01DX001 (ip), vehicle: saline with Tween-80
[5] = T/C endpoint: median tumor weight change, dose: 1000.0 mg/kg/injection, schedule: Q01DX001 (ip), vehicle: saline with Tween-80
[6] = T/C endpoint: median tumor weight change, dose: 250.0 mg/kg/injection, schedule: Q01DX001 (ip), vehicle: Klucel (hydroxypropylcellulose) (HPC)
[7] = T/C endpoint: median tumor weight change, dose: 500.0 mg/kg/injection, schedule: Q01DX001 (ip), vehicle: Klucel (hydroxypropylcellulose) (HPC)
[8] = T/C endpoint: median tumor weight change, dose: 2000.0 mg/kg/injection, schedule: Q01DX001 (ip), vehicle: saline with Tween-80

With `COC(=O)C12OCC34C(CC5C(C)=CC(=O)C(O)C5(C)C3C(O)C1O)OC(=O)C(OC(=O)CC(C)C)C24` (stereo not drawn) the survivor count (T/C endpoint: median tumor weight (est.), dose: 0.5 mg/kg/injection, schedule: Q07DX005 (ip), vehicle: saline + alcohol) was 1 of 10 on day 30, the survivor count (T/C endpoint: median tumor weight (est.), dose: 1.0 mg/kg/injection, schedule: Q07DX005 (ip), vehicle: saline + alcohol) was 6 of 10 on day 30 and the survivor count (T/C endpoint: median tumor weight (est.), dose: 2.0 mg/kg/injection, schedule: Q07DX005 (ip), vehicle: saline + alcohol) was 4 of 10 on day 30. The survivor count (T/C endpoint: median tumor weight (est.), dose: 4.0 mg/kg/injection, schedule: Q07DX005 (ip), vehicle: saline + alcohol) was 2 of 10 on day 30 and 6 of 10 on day 30 and the survivor count (T/C endpoint: median tumor weight (est.), dose: 8.0 mg/kg/injection, schedule: Q07DX005 (ip), vehicle: saline + alcohol) was 1 of 10 on day 30.

With `COC(=O)C[C@](O)(CCCC(C)(C)O)C(=O)O[C@@H]1C(OC)=C[C@]23CCCN2CCc2cc4c(cc2[C@H]13)OCO4` the T/C (T/C endpoint: median tumor weight (est.), dose: 0.25 mg/kg/injection, schedule: Q07DX005 (ip), vehicle: saline, evaluated on day 30) was 143 % of control.

For `COC(=O)C(N)Cc1ccc(O)c(O)c1` (stereo not drawn), the T/C (T/C endpoint: median tumor weight (est.), dose: 50.0 mg/kg/injection, schedule: Q07DX005 (ip), vehicle: saline, evaluated on day 30) was 132 % of control, the T/C (T/C endpoint: median tumor weight (est.), dose: 200.0 mg/kg/injection, schedule: Q07DX005 (ip), vehicle: saline, evaluated on day 30) was 133 % of control and the survivor count (T/C endpoint: median tumor weight (est.), dose: 1600.0 mg/kg/injection, schedule: Q07DX005 (ip), vehicle: saline) was 5 of 10 on day 30.

With `COc1ccc2c(c1)CCC(c1ccccc1)=C2c1ccc(OCCN2CCCC2)cc1` the survivor count (T/C endpoint: median tumor weight (est.), dose: 200.0 mg/kg/injection, schedule: Q07DX005 (ip), vehicle: Klucel (hydroxypropylcellulose) (HPC)) was 2 of 10 on day 30.

With `CN(C)CCC(=O)C(=Cc1ccc(O)cc1)C(=O)CCN(C)C` the survivor count (T/C endpoint: median tumor weight change, dose: 200.0 mg/kg/injection, schedule: Q01DX001 (ip), vehicle: suspension in saline) was 0 of 10 on day 36, the survivor count [1] was 1 of 10 on day 36 and the survivor count (T/C endpoint: median tumor weight change, dose: 400.0 mg/kg/injection, schedule: Q01DX001 (ip), vehicle: suspension in saline) was 0 of 10 on day 36. The survivor count [2] was 0 of 10 on day 36, the survivor count (T/C endpoint: median tumor weight change, dose: 800.0 mg/kg/injection, schedule: Q01DX001 (ip), vehicle: suspension in saline) was 0 of 10 on day 36 and the survivor count [3] was 0 of 10 on day 36.

In the case of `Oc1ccc(CCl)c2cccnc12`, the survivor count [1] is reported as 5 of 10 on day 34, the survivor count [2] is reported as 1 of 10 on day 34 and the survivor count [3] is reported as 0 of 10 on day 34.

In the case of `Nc1nncs1`, the T/C (T/C endpoint: median tumor weight (est.), dose: 100.0 mg/kg/injection, schedule: Q07DX005 (ip), vehicle: Klucel (hydroxypropylcellulose) (HPC), evaluated on day 30) is reported as 126 % of control.

For `NC(C(=O)O)c1ccc(CBr)cc1` (stereo not drawn), the T/C (T/C endpoint: median tumor weight change, dose: 62.5 mg/kg/injection, schedule: Q01DX001 (ip), vehicle: saline with Tween-80, evaluated on day 37) was 134 % of control [9 of 10 alive on day 37], the survivor count (T/C endpoint: median tumor weight change, dose: 250.0 mg/kg/injection, schedule: Q01DX001 (ip), vehicle: saline with Tween-80) was 4 of 10 on day 37 and the survivor count [4] was 0 of 10 on day 37. For the same compound, the survivor count [5] was 0 of 10 on day 37.

In the case of `N[C@H](C(=O)O)[C@@H]1CC(Cl)=NO1`, the T/C (T/C endpoint: median tumor weight (est.), dose: 8.0 mg/kg/injection, schedule: Q07DX005 (ip), vehicle: saline, evaluated on day 30) is reported as 60 [9 of 10 alive], 69 [6 of 9 alive], 76, 175 % of control, the T/C (T/C endpoint: median tumor weight (est.), dose: 16.0 mg/kg/injection, schedule: Q07DX005 (ip), vehicle: saline, evaluated on day 30) is reported as 51, 51 [9 of 10 alive], 61 [9 of 10 alive], 89 % of control and the T/C (T/C endpoint: median tumor weight (est.), dose: 32.0 mg/kg/injection, schedule: Q07DX005 (ip), vehicle: saline, evaluated on day 30) is reported as 6, 38 [9 of 10 alive], 40, 99 % of control.

`CCCCCC(O)C1C(=O)OC(C)C(O)/C=C/C=C/C=C/C=C\C=C(\C)C(O)CC(O)CC(O)CC(O)CC(O)CC(O)CC1O` (stereo not drawn) was tested, and the T/C (T/C endpoint: median tumor weight change, dose: 31.25 mg/kg/injection, schedule: Q01DX001 (ip), vehicle: distilled water + Tween-80, evaluated on day 35) was 137 % of control, the survivor count (T/C endpoint: median tumor weight change, dose: 125.0 mg/kg/injection, schedule: Q01DX001 (ip), vehicle: distilled water + Tween-80) was 4 of 10 on day 35 and the survivor count (T/C endpoint: median tumor weight change, dose: 250.0 mg/kg/injection, schedule: Q01DX001 (ip), vehicle: distilled water + Tween-80) was 0 of 10 on day 35. For the same compound, the survivor count (T/C endpoint: median tumor weight change, dose: 500.0 mg/kg/injection, schedule: Q01DX001 (ip), vehicle: distilled water + Tween-80) was 0 of 10 on day 35.

In the case of `NC(=O)Oc1cccc(OC(N)=O)c1`, the T/C (T/C endpoint: mean tumor weight, dose: 25.0 mg/kg/injection, schedule: Q07DX006 (ip), vehicle: water, evaluated on day 42) is reported as 141 % of control and the T/C (T/C endpoint: median tumor weight (est.), dose: 100.0 mg/kg/injection, schedule: Q07DX005 (ip), vehicle: water, evaluated on day 30) is reported as 128 % of control.

In the case of `Cc1c(-c2ccc(-c3ccccc3F)cc2)nc2ccc(F)cc2c1C(=O)O`, the T/C (T/C endpoint: median tumor weight change, dose: 22.5 mg/kg/injection, schedule: Q01DX001 (ip), vehicle: water, evaluated on day 30) is reported as 144 % of control, the survivor count (T/C endpoint: median tumor weight change, dose: 150.0 mg/kg/injection, schedule: Q01DX005 (ip), vehicle: water) is reported as 0 of 10 on day 32 and the survivor count (T/C endpoint: median tumor weight change, dose: 180.0 mg/kg/injection, schedule: Q01DX001 (ip), vehicle: water) is reported as 1 of 10 on day 30.

With `CCc1ccc(C2=C(O)C(=O)C(c3ccccc3)=C(O)C2=O)cc1` the survivor count [6] was 4 of 10 on day 31 and the survivor count [7] was 0 of 10 on day 31.

With `C=C(C(=O)O)C(N)C(=O)O` (stereo not drawn) the survivor count [3] was 5 of 10 on day 36.

For `CC1=CC(C)(C)Nc2ccc(CSc3ccccc3)cc21`, the T/C (T/C endpoint: median tumor weight change, dose: 250.0 mg/kg/injection, schedule: Q01DX001 (ip), vehicle: DMSO, evaluated on day 28) was 149 % of control.

With `Cc1cc(Nc2ccc3c(c2)OCO3)c2cc3c(cc2n1)OCO3` the survivor count [6] was 0 of 10 on day 29, the survivor count [7] was 0 of 10 on day 29 and the survivor count (T/C endpoint: median tumor weight change, dose: 1000.0 mg/kg/injection, schedule: Q01DX001 (ip), vehicle: Klucel (hydroxypropylcellulose) (HPC)) was 0 of 10 on day 29. The survivor count (T/C endpoint: median tumor weight change, dose: 2000.0 mg/kg/injection, schedule: Q01DX001 (ip), vehicle: Klucel (hydroxypropylcellulose) (HPC)) was 0 of 10 on day 29.

For `Nc1c(C(=O)O)[nH]c(=O)[nH]c1=O`, the T/C (T/C endpoint: median tumor weight (est.), dose: 25.0 mg/kg/injection, schedule: Q07DX005 (ip), vehicle: saline with Tween-80, evaluated on day 30) was 127 % of control and the T/C (T/C endpoint: median tumor weight (est.), dose: 50.0 mg/kg/injection, schedule: Q07DX005 (ip), vehicle: saline with Tween-80, evaluated on day 30) was 140 % of control [9 of 10 alive].

`C[n+]1c(-c2cccc3ccccc23)c2cc(N)ccc2c2ccccc21` was tested, and the survivor count (T/C endpoint: median tumor weight (est.), dose: 25.0 mg/kg/injection, schedule: Q07DX005 (ip), vehicle: saline) was 5 of 10.

`CCC[P+](c1ccccc1)(c1ccccc1)c1ccccc1` was tested, and the T/C (T/C endpoint: median tumor weight (est.), dose: 3.12 mg/kg/injection, schedule: Q07DX004 (ip), vehicle: saline with Tween-80, evaluated on day 26) was 126 % of control and the survivor count (T/C endpoint: median tumor weight (est.), dose: 100.0 mg/kg/injection, schedule: Q07DX005 (ip), vehicle: saline with Tween-80) was 1 of 10 on day 30.

For `C=CC(C)NC(=S)NNC(=S)NC` (stereo not drawn), the T/C (T/C endpoint: median tumor weight change, dose: 31.25 mg/kg/injection, schedule: Q01DX001 (ip), vehicle: saline + alcohol, evaluated on day 28) was 140 % of control.

In the case of `N=C1CCCS1`, the survivor count [2] is reported as 0 of 10 on day 28, the survivor count [3] is reported as 0 of 10 on day 28 and the survivor count (T/C endpoint: median tumor weight change, dose: 2000.0 mg/kg/injection, schedule: Q01DX001 (ip), vehicle: saline) is reported as 0 of 10 on day 28.

`Nc1nc(-c2ccccc2)c(Br)c(=O)[nH]1` was tested, and the survivor count [8] was 3 of 10 on day 31.

For `CCCCOCN(COCCCC)C12CC3CC(CC(C3)C1)C2`, the survivor count [4] was 6 of 10 on day 27, the survivor count [5] was 1 of 10 on day 27 and the survivor count [8] was 0 of 10 on day 27.

In the case of `C/C(=N/NC(N)=S)c1ccc2ccccc2c1`, the survivor count (T/C endpoint: median tumor weight (est.), dose: 200.0 mg/kg/injection, schedule: Q07DX005 (ip), vehicle: saline with Tween-80) is reported as 3 of 10.
